This assay deals with Ex Taq DNA聚合酶 (货号为RR001Q，TaKaRa公司) (UniProt P19821). The experiment in a line: molecular beacon polymerase inhibition assay, hybridoma supernatant mixed with Ex Taq.

The chains behind the UniProt entries cited, without tags or fusion partners.
UniProt P19821: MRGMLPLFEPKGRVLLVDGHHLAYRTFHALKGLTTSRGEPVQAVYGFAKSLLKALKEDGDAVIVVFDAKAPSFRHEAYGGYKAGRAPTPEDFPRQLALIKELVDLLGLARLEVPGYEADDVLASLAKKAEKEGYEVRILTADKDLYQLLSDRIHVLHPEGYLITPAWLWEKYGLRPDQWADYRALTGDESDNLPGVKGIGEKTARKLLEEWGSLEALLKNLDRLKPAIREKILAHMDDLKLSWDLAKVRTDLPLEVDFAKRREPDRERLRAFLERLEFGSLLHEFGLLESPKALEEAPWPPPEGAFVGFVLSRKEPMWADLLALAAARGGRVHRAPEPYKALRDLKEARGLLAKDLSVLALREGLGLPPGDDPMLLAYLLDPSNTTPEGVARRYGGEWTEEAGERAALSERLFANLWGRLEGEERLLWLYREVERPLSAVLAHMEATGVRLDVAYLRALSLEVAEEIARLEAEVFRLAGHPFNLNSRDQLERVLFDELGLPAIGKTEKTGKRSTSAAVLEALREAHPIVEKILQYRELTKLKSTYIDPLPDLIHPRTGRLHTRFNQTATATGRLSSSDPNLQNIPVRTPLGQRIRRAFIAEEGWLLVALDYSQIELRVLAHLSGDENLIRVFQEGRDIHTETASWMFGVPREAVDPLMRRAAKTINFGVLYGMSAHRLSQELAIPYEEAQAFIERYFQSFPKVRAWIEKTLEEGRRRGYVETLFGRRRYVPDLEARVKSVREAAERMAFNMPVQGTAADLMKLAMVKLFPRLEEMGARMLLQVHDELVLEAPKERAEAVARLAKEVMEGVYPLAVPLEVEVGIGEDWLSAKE

This note sets out measurements from patent publication CN113321733A.

These are yes or no findings as the source states them, for the method shown. Some entries that bind do so weakly or less than the wild type.

B1: 单克隆抗体1C4 (Taq DNA聚合酶单克隆抗体) (antibody, mouse IgG1, V domains shown)
VH: QVQLQQPGAELVKPGTSVKLSCKASGYNFTSHWINWVKLRPGQGLEWIGDIYPGRGSTNYNEKFRNKATLTVDTSSSSAYMQLSSLASEDSALYYCARGVFYAMDYWGQGTSVS
VL: SIVMTQTPKFLLVSAGDRVTMTCKASQSVDNDVAWYQQKPGQSPKLLIYSASNRYTGVPDRFTGSGFGTDFTFTISTVQAEDLALYFCQQYYSSPWTFGGGTNLKSN
Take B1: the binding result is reported as “binds”.
